For 1 molecule, binding results are on record in paper PMC4481513, “Structural and Functional Analysis of Human HtrA3 Protease and Its Subdomains” (PLoS ONE, 2015).

The assay addresses ΔN-HtrA3_(S305A) (residues 130–453–His6), proteolytically inactive N-terminally truncated HtrA3L with protease and PDZ domains (human) (UniProt P83110). Kind of assay: cross-linking; Bis(sulfosuccinimidyl) suberate (BS3), then SDS-PAGE; data not shown; both purified.

Results are given in words; binding and its absence hold for the method and conditions named. Some results given as binding are weak or reduced against the parent protein; the word gives no strength.

B1: ΔN-HtrA3_(S305A) (residues 130–453–His6), proteolytically inactive N-terminally truncated HtrA3L with protease and PDZ domains (domain or fragment, human, UniProt P83110 130-453, looked up)
chain: LHQLSSPRYKFNFIADVVEKIAPAVVHIELFLRHPLFGRNVPLSSGSGFIMSEAGLIITNAHVVSSNSAAPGRQQLKVQLQNGDSYEATIKDIDKKSDIATIKIHPKKKLPVLLLGHSADLRPGEFVVAIGSPFALQNTVTTGIVSTAQREGRELGLRDSDMDYIQTDAIINYGNAGGPLVNLDGEVIGINTLKVTAGISFAIPSDRITRFLTEFQDKQIKDWKKRFIGIRMRTITPSLVDELKASNPDFPEVSSGIYVQEVAPNSPSQRGGIQDGDIIVKVNGRPLVDSSELQEAVLTESPLLLEVRRGNDDLLFSIAPEVVM
notes: human HtrA3 long isoform (HtrA3L), residues 130-453: serine protease domain and PDZ domain, catalytic serine changed to alanine; Chain A of the structure runs to residue 459, that is into the His tag; also called ΔN-HtrA3-His6; pPG1; source: E. coli BL21(DE3) clpP::Cm r, purified (Ni-NTA; before crystallization also Superdex 200 gel filtration); not shown: His6, C-terminal, kept
As for B1, the binding entry was “binds”.
